Results deposited as PubChem BioAssay AID743121 (NCATS, 2013).

Purpose: 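Genes whose silencing strengthens cell killing by camptothecin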 (primary screen)
Cell system: MDA-MB-231 cells, a human breast cancer line
Reagent: single siRNA against human genes, 20 nM siRNA (0.8 pmol per well)
Duration: 120 h (drug added 48 h after transfection, read 72 h later)
Challenge: camptothecin 20 nM (about EC30) for 72 h; vehicle 0.1% DMSO in parallel plates
Measurement: 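CellTiter-Glo ATP signal, scaled to control siRNA as percent viability; sensitisation given as log2 of untreated divided by camptothecin-treated viability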
Direction: log2 vehicle/camptothecin viability: higher = stronger sensitisation to camptothecin; viability with camptothecin and viability without drug: higher = more viable cells
Rule for the call: 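Active genes have an RSA gene-level p-value below 0.001, computed from the ratios of their separate siRNAs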
The deposit covers about 26,000 reagents; shown is a part drawn at random. 167 of them (0.63%) were called active. 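Calls are per gene from RSA p-values that are not deposited; an individual active-marked siRNA can sensitise only weakly.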 The numbers tell different reagents against one gene apart.

no.	target gene	reagent no.	log2 vehicle/camptothecin viability	viability with camptothecin (% of control)	viability without drug (% of control)	call
1	SLC10A6 (GeneID 345274)	1	-0.216	107	92.1	inactive
2	SLC10A6 (GeneID 345274)	2	0.0383	99.3	102	inactive
3	SLC10A6 (GeneID 345274)	3	-0.228	59.5	50.8	inactive
4	SLC10A6 (GeneID 345274)	4	-0.192	82.5	72.2	inactive
5	HOMER1 (GeneID 9456)	1	-0.386	66.7	51.1	inactive
6	HOMER1 (GeneID 9456)	2	-0.439	89.8	66.3	inactive
7	HOMER1 (GeneID 9456)	3	0.162	45.2	50.6	inactive
8	HOMER1 (GeneID 9456)	4	-0.295	78.1	63.6	inactive
9	SLC6A14 (GeneID 11254)	1	-0.308	79.5	64.2	inactive
10	SLC6A14 (GeneID 11254)	2	-0.23	82.8	70.6	inactive
11	SLC6A14 (GeneID 11254)	3	-0.316	97.2	78.1	inactive
12	RCHY1 (GeneID 25898)	1	-0.248	123	104	inactive
13	RCHY1 (GeneID 25898)	2	-0.18	82.5	72.8	inactive
14	RCHY1 (GeneID 25898)	3	-0.333	52.7	41.8	inactive
15	RCHY1 (GeneID 25898)	4	-0.267	117	97.4	inactive
16	KCNMA1 (GeneID 3778)	1	-0.213	104	89.6	inactive
17	KCNMA1 (GeneID 3778)	2	-0.235	48.4	41.1	inactive
18	KCNMA1 (GeneID 3778)	3	0.234	63.7	74.9	inactive

The list goes on, starting with the last 2 of the part before.
no.	target gene	reagent no.	log2 vehicle/camptothecin viability	viability with camptothecin (% of control)	viability without drug (% of control)	call
17	KCNMA1 (GeneID 3778)	2	-0.235	48.4	41.1	inactive
18	KCNMA1 (GeneID 3778)	3	0.234	63.7	74.9	inactive
19	CSF1R (GeneID 1436)	1	-0.203	52.2	45.3	inactive
20	CSF1R (GeneID 1436)	2	-0.379	55.1	42.4	inactive
21	CSF1R (GeneID 1436)	3	0.00433	95	95.3	inactive
22	TAL2 (GeneID 6887)	1	0.0707	73.1	76.8	inactive
23	TAL2 (GeneID 6887)	2	-0.335	77.4	61.4	inactive
24	TAL2 (GeneID 6887)	3	-0.102	47.2	44	inactive
25	CNGA3 (GeneID 1261)	1	0.331	17.9	22.5	inactive
26	CNGA3 (GeneID 1261)	2	-0.276	52.4	43.3	inactive
27	CNGA3 (GeneID 1261)	3	-0.446	76.8	56.4	inactive
28	SFTPB (GeneID 6439)	1	-0.452	44.8	32.7	inactive
29	SFTPB (GeneID 6439)	2	0.48	34.8	48.5	inactive
30	SFTPB (GeneID 6439)	3	-0.0735	92.8	88.2	inactive
31	SFTPB (GeneID 6439)	4	-0.462	92.8	67.4	inactive
